# Some of the results follow.
# Chains of the proteins cited; added tags and fusions are not shown. Lines headed by an entry give the natural chain unless they say otherwise; changes in a name come on top.
# UniProt Q9P260: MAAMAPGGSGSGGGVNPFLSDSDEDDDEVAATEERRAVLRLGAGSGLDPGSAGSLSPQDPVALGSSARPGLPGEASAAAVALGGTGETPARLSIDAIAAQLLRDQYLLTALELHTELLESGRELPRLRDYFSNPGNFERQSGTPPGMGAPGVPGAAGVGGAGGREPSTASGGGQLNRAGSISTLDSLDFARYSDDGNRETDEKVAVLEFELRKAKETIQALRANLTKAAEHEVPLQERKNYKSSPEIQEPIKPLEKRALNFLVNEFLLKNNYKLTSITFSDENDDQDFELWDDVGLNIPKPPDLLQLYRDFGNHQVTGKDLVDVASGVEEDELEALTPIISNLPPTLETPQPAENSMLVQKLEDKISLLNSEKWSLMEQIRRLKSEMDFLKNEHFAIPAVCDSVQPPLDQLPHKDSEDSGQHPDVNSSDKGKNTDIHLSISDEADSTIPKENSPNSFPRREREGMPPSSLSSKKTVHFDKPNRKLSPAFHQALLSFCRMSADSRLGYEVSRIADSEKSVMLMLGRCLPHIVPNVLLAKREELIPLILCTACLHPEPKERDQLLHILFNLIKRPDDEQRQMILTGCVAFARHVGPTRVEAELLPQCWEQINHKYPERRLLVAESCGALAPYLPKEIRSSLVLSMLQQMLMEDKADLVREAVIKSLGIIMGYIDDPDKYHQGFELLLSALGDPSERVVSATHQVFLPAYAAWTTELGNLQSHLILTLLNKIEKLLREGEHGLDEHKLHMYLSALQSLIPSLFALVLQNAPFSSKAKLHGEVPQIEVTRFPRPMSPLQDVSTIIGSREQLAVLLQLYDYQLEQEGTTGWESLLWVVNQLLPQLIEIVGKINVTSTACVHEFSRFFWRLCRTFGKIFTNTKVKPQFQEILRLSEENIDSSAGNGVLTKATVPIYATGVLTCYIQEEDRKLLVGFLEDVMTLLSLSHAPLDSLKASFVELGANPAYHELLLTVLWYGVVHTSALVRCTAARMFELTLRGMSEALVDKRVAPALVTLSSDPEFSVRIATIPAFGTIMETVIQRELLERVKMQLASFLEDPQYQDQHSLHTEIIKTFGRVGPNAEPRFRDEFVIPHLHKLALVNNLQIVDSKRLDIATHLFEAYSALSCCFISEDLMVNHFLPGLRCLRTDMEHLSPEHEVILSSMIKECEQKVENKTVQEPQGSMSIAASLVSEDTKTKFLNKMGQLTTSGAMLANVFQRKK
# UniProt Q9BWE0: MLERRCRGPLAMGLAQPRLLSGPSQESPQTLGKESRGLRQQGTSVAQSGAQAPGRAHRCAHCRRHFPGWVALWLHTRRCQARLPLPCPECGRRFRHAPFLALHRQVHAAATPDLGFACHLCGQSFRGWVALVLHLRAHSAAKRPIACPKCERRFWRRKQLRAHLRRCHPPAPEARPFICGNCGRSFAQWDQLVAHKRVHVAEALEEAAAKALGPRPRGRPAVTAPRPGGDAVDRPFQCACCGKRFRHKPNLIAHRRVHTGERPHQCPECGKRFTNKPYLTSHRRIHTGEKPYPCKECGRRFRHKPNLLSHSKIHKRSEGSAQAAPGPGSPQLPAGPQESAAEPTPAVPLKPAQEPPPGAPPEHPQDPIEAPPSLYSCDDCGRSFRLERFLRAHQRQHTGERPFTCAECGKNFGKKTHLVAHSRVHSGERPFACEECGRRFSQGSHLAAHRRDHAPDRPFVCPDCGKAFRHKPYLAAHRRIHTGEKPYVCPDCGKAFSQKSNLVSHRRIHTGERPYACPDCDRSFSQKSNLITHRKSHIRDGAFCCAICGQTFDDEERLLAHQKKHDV
# UniProt Q96D71: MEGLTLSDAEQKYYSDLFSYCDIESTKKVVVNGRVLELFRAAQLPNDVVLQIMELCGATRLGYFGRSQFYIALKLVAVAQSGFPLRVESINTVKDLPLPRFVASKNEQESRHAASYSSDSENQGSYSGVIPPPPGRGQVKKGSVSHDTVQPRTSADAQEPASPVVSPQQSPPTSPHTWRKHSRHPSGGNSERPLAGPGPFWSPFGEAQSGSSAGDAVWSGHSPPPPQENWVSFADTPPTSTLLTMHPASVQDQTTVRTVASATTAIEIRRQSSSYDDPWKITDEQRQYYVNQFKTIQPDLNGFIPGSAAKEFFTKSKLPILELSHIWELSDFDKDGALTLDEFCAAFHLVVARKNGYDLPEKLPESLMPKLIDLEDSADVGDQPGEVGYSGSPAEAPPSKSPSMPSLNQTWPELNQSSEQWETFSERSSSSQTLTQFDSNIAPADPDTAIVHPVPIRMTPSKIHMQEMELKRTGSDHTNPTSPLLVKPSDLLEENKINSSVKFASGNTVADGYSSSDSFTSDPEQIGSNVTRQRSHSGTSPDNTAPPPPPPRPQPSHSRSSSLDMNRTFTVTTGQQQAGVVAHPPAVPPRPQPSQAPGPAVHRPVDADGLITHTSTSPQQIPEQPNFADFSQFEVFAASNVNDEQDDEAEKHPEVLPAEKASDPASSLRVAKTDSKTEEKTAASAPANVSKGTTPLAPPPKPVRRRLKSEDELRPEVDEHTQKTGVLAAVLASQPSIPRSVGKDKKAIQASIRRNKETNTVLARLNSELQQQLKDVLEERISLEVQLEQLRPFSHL
# UniProt P18754: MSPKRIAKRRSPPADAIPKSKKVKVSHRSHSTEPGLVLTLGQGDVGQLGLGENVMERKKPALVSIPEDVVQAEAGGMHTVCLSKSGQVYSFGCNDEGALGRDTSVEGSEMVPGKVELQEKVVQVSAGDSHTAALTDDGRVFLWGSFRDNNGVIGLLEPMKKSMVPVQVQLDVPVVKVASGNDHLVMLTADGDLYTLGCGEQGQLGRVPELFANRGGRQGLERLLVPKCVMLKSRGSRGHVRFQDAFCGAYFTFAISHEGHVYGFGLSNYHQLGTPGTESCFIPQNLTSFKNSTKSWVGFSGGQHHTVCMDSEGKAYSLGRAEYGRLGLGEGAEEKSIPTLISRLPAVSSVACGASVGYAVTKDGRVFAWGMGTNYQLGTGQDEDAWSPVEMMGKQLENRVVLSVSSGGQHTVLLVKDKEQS
# UniProt Q9H6H4: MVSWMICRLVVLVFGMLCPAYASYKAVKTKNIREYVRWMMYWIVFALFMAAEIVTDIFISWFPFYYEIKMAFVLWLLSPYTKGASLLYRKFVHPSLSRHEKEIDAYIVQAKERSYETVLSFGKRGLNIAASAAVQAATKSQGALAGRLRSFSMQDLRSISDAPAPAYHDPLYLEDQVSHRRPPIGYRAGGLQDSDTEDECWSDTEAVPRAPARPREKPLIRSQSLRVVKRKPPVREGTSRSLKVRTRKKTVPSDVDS
# UniProt Q96D15: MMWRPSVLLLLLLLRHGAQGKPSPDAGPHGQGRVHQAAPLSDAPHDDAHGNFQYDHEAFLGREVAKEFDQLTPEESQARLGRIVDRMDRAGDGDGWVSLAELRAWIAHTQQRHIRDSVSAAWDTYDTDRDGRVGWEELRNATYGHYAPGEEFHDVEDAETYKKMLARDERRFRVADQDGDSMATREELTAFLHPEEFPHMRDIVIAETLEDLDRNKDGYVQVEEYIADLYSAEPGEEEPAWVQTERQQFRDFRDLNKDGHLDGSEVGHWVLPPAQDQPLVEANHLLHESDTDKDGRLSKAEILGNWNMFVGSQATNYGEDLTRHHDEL
# UniProt Q9UBS8: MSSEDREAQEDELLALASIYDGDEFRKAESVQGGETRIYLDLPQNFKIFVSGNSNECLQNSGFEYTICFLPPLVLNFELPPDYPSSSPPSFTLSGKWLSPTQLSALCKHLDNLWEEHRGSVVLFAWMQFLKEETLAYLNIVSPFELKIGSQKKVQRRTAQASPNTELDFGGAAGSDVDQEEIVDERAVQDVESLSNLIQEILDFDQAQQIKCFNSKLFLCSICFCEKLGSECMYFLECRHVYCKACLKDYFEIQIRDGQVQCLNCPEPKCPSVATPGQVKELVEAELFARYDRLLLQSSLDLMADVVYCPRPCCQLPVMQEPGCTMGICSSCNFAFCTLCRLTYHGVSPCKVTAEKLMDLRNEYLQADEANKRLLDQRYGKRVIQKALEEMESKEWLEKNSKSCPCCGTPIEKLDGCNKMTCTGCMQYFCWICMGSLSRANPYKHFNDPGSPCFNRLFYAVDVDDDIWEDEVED
# Legend:
# Assay in all cases: log2 fold change, soluble protein after heating vs DMSO (PISA); higher = thermal stabilisation; K562 cells, 10 uM, 30 min; active = over 0.2 and 3.5 SD of the protein, either way, in both replicates (recomputed)
# saracatinib = compound: CN1CCN(CCOc2cc(OC3CCOCC3)c3c(Nc4c(Cl)ccc5c4OCO5)ncnc3c2)CC1 [saracatinib]
# Summary of the method: (§1)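 K562 cells at 2×10^6 cells/mL were treated for 30 min with 10 μM compound, and aliquots were heated for 3 min over 48°C-58°C before pooling. Extraction used PBS with 0.5% NP-40 at 4°C, and soluble protein was the supernatant after 21,000xg for 90 min, measured by TMTpro 16plex LC-MS/MS with channel sums equalised. Thermal stability values, relative to control samples and from duplicates, are log2 fold changes.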
# sotrastaurin = compound: CN1CCN(c2nc(C3=C(c4c[nH]c5ccccc45)C(=O)NC3=O)c3ccccc3n2)CC1 [sotrastaurin]
# Summary of the method: as §1
# alvocidib = compound: CN1CC[C@H](c2c(O)cc(O)c3c(=O)cc(-c4ccccc4Cl)oc23)[C@H](O)C1 [alvocidib]
# Summary of the method: as §1
# Tubastatin A = compound: CN1CCc2c(c3ccccc3n2Cc2ccc(C(=O)NO)cc2)C1 [Tubastatin A]
# Summary of the method: as §1
# [1] = compound: CNC(=O)C1=CC=CC=C1NC2=NC(=NC=C2Cl)NC3=C(C=C(C=C3)N4CCOCC4)OC
# Summary of the method: as §1
# defactinib = compound: CNC(=O)c1ccc(Nc2ncc(C(F)(F)F)c(NCc3nccnc3N(C)S(C)(=O)=O)n2)cc1 [defactinib]
# Summary of the method: as §1
# rucaparib = compound: CNCc1ccc(-c2[nH]c3cc(F)cc4c3c2CCNC4=O)cc1 [rucaparib]
# Summary of the method: as §1
# [2] = compound: CNc1nc(-c2ccc3c(N)n[nH]c3c2)cc(N2C[C@@H](C(=O)NC3CCCCC3)CC[C@H]2C)n1
# Summary of the method: as §1
# encorafenib = compound: COC(=O)N[C@@H](C)CNc1nccc(-c2cn(C(C)C)nc2-c2cc(Cl)cc(NS(C)(=O)=O)c2F)n1 [encorafenib]
# Summary of the method: as §1
# [3] = compound: COC(=O)[C@H](CCSC)NC(=O)C1=C(C=C(C=C1)NC[C@H](CS)N)C2=CC=CC=C2
# Summary of the method: as §1
# filanesib = compound: CON(C)C(=O)N1N=C(c2cc(F)ccc2F)S[C@@]1(CCCN)c1ccccc1 [filanesib]
# Summary of the method: as §1
# zotarolimus = compound: CO[C@H]1C[C@@H]2CC[C@@H](C)[C@@](O)(O2)C(=O)C(=O)N2CCCC[C@H]2C(=O)O[C@H]([C@H](C)C[C@@H]2CC[C@H](n3cnnn3)[C@H](OC)C2)CC(=O)[C@H](C)/C=C(\C)[C@@H](O)[C@@H](OC)C(=O)[C@H](C)C[C@H](C)/C=C/C=C/C=C/1C [zotarolimus]
# Summary of the method: as §1
# idasanutlin = compound: COc1cc(C(=O)O)ccc1NC(=O)[C@@H]1N[C@@H](CC(C)(C)C)[C@](C#N)(c2ccc(Cl)cc2F)[C@H]1c1cccc(Cl)c1F [idasanutlin]
# Summary of the method: as §1
# alisertib = compound: COc1cc(Nc2ncc3c(n2)-c2ccc(Cl)cc2C(c2c(F)cccc2OC)=NC3)ccc1C(=O)O [alisertib]
# Summary of the method: as §1
# gefitinib = compound: COc1cc2ncnc(Nc3ccc(F)c(Cl)c3)c2cc1OCCCN1CCOCC1 [gefitinib]
# Summary of the method: as §1
# [4] = compound: COc1cccc2cc(-c3nc([C@H]4CC[C@H](C(=O)O)CC4)n4ncnc(N)c34)[nH]c12
# Summary of the method: as §1
# pictilisib = compound: CS(=O)(=O)N1CCN(Cc2cc3nc(-c4cccc5[nH]ncc45)nc(N4CCOCC4)c3s2)CC1 [pictilisib]
# Summary of the method: as §1
# [5] = compound: COC1=CC=C(C=C1)CN2C=CC3=C2C=C(C=C3)C(=O)NO
# Summary of the method: as §1
# [6] = compound: COc1cc2nc(-c3cc(F)ccc3O)nc(N[C@@H]3CNC[C@H]3C(C)(C)O)c2cc1OC
# Summary of the method: as §1
# lapatinib = compound: CS(=O)(=O)CCNCc1ccc(-c2ccc3ncnc(Nc4ccc(OCc5cccc(F)c5)c(Cl)c4)c3c2)o1 [lapatinib]
# Summary of the method: as §1
Target,log2 fold change (saracatinib),log2 fold change (sotrastaurin),log2 fold change (alvocidib),log2 fold change (Tubastatin A),log2 fold change [1],log2 fold change (defactinib),log2 fold change (rucaparib),log2 fold change [2],log2 fold change (encorafenib),log2 fold change [3],log2 fold change (filanesib),log2 fold change (zotarolimus),log2 fold change (idasanutlin),log2 fold change (alisertib),log2 fold change (gefitinib),log2 fold change [4],log2 fold change (pictilisib),log2 fold change [5],log2 fold change [6],log2 fold change (lapatinib)
RELCH isoform 2 (UniProt Q9P260),inactive: -0.097,inactive: -0.039,inactive: -0.043,inactive: -0.141,inactive: -0.045,inactive: 0.027,inactive: 0.097,inactive: 0.039,inactive: -0.075,inactive: -0.196,inactive: -0.022,inactive: -0.068,inactive: -0.034,inactive: -0.004,inactive: -0.006,inactive: 0.159,inactive: 0.033,,,
RBM8A (UniProt Q9Y5S9),inactive: 0.011,inactive: -0.002,,inactive: 0.045,inactive: -0.032,inactive: 0.075,inactive: -0.043,inactive: -0.006,inactive: 0.025,inactive: 0.012,inactive: 0.028,inactive: -0.018,inactive: -0.01,inactive: -0.024,inactive: 0.038,inactive: -0.029,inactive: -0.013,inactive: -0.061,inactive: 0.094,inactive: -0.028
REPIN1 isoform 4 (UniProt Q9BWE0),inactive: -0.022,inactive: -0.006,inactive: 0.041,inactive: -0.02,inactive: 0.002,inactive: -0.003,inactive: 0.088,inactive: -0.052,inactive: -0.009,inactive: 0.027,inactive: 0.014,inactive: -0.004,inactive: 0.015,inactive: 0.002,inactive: -0.012,inactive: 0.031,inactive: -0.009,inactive: 0.212,inactive: -0.019,inactive: 0.046
REPS1 (UniProt Q96D71),inactive: -0.016,inactive: -0.329,inactive: 0.027,inactive: -0.108,inactive: -0.004,inactive: 0.052,inactive: 0.173,inactive: 0.098,inactive: 0.001,inactive: 0.044,inactive: 0.263,inactive: 0.093,inactive: 0.2,,inactive: 0.107,,inactive: 0.102,inactive: 0.023,inactive: 0.117,inactive: -0.334
RCC1 isoform 2 (UniProt P18754),inactive: -0.076,inactive: -0.049,,inactive: 0.164,inactive: -0.083,inactive: -0.224,inactive: -0.008,inactive: 0.146,inactive: 0.045,inactive: -0.07,inactive: -0.058,inactive: 0.083,inactive: 0,inactive: 0.022,inactive: 0.087,inactive: 0.021,inactive: -0.005,inactive: 0.106,inactive: -0.038,inactive: 0
REEP4 (UniProt Q9H6H4),inactive: 0.047,inactive: -0.068,,inactive: 0.018,inactive: -0.122,inactive: 0.008,inactive: 0.086,inactive: -0.014,inactive: -0.013,inactive: -0.01,inactive: -0.072,inactive: -0.034,inactive: 0.033,inactive: -0.07,inactive: -0.032,inactive: -0.031,inactive: -0.175,inactive: -0.039,active: -0.32,inactive: 0.121
RCN3 (UniProt Q96D15),inactive: 0.033,inactive: 0.107,,inactive: 0.153,inactive: -0.076,inactive: 0.096,inactive: 0.038,inactive: -0.309,inactive: 0.054,inactive: 0.087,inactive: 0.054,inactive: -0.068,inactive: -0.122,inactive: 0,inactive: 0,inactive: 0.132,inactive: 0.087,inactive: -0.065,inactive: 0.043,inactive: -0.025
RNF14 (UniProt Q9UBS8),inactive: -0.02,inactive: -0.042,,inactive: -0.014,inactive: 0.007,inactive: -0.096,inactive: -0.015,inactive: -0.043,inactive: -0.027,inactive: 0.042,inactive: -0.093,inactive: 0.018,inactive: 0.043,inactive: -0.035,inactive: 0.003,inactive: -0.048,inactive: 0.045,inactive: 0.034,inactive: -0.038,inactive: 0.006

# From the supplement of paper PMC10849652
